The target in assay [1] is T1, FLAG-tagged recombinant human LRG1 (leucine-rich α2-glycoprotein-1) (human) (UniProt P02750).
T1 sequence: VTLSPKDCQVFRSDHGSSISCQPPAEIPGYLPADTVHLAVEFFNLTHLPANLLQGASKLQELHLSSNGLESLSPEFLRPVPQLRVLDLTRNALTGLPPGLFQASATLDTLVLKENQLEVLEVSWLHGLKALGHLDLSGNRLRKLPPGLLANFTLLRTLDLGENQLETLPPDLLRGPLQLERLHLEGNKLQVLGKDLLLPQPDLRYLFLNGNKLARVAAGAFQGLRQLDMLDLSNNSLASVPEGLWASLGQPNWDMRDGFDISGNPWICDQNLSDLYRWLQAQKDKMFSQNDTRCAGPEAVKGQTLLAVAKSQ
Briefly: co-IP; FLAG-LRG1 (1 μg) incubated with TGF-β1 (0.2 μg), horse Cyt c (2 μg) or both; Cyt c in 8-fold molar excess to LRG1 and 20-fold to TGF-β1; immunoprecipitated with anti-FLAG antibody-coupled agarose; western blots for Cyt c and TGF-β1; only the binder purified.

Amino acid sequences for entries named in this document (tags omitted). Residues count along the entry.
UniProt P00004: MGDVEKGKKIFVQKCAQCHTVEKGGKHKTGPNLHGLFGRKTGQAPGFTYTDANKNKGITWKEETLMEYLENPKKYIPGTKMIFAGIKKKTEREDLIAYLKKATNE
UniProt P01137, residues 279-390: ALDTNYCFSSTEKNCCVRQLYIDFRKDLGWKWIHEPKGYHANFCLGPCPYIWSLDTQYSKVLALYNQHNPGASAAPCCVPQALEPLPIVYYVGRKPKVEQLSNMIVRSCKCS

Assay [2] has as its target T1, FLAG-tagged recombinant human LRG1 (leucine-rich α2-glycoprotein-1) (human). Put plainly: co-IP; competition: TGF-β1 (25 ng) incubated with FLAG-LRG1 (100 ng) and increasing horse Cyt c (0-1 μg); LRG1 complexes immunoprecipitated with anti-FLAG antibody-coupled agarose; TGF-β1 seen by western blot; only the binder purified.
Assay [3] addresses Cyt c conjugated to Sepharose 4B beads (UniProt P00004). Briefly: pull-down; mini-column of 0.5 ml Cyt c-conjugated Sepharose 4B (10 mg protein per ml beads) regenerated in PBS pH 7.5; purified urine LRG1 (10 μg) applied to the column; both purified.

Results are given in words; binding and its absence hold for the method and conditions named. For some of these results: In cells and extracts the contact can be indirect. Some entries that bind do so weakly or less than the wild type. For some of these results: Sequences can lack the tags named with a protein.

As to “horse cytochrome c (from UniProt P00004 1-105)”, the binding entry in assay [1] was “binds”.

For the molecule “recombinant human transforming growth factor-beta 1 (TGF-β1) (from UniProt P01137 279-390) (ligand)”, the binding result in assay [1] and in assay [2] was “binds” throughout.

B1: LRG1 purified from urine of an appendicitis patient (protein, UniProt P02750 36-347)
chain: VTLSPKDCQVFRSDHGSSISCQPPAEIPGYLPADTVHLAVEFFNLTHLPANLLQGASKLQELHLSSNGLESLSPEFLRPVPQLRVLDLTRNALTGLPPGLFQASATLDTLVLKENQLEVLEVSWLHGLKALGHLDLSGNRLRKLPPGLLANFTLLRTLDLGENQLETLPPDLLRGPLQLERLHLEGNKLQVLGKDLLLPQPDLRYLFLNGNKLARVAAGAFQGLRQLDMLDLSNNSLASVPEGLWASLGQPNWDMRDGFDISGNPWICDQNLSDLYRWLQAQKDKMFSQNDTRCAGPEAVKGQTLLAVAKSQ
On to B1, for which the binding entry in assay [3] was “binds”.
